This is an account of results in article PMC10619437.

Protein sequences, listed by entry. Tags and fused reporters are not part of them. Lines headed by an entry give the natural chain unless they say otherwise; changes in a name come on top.
UniProt P21980: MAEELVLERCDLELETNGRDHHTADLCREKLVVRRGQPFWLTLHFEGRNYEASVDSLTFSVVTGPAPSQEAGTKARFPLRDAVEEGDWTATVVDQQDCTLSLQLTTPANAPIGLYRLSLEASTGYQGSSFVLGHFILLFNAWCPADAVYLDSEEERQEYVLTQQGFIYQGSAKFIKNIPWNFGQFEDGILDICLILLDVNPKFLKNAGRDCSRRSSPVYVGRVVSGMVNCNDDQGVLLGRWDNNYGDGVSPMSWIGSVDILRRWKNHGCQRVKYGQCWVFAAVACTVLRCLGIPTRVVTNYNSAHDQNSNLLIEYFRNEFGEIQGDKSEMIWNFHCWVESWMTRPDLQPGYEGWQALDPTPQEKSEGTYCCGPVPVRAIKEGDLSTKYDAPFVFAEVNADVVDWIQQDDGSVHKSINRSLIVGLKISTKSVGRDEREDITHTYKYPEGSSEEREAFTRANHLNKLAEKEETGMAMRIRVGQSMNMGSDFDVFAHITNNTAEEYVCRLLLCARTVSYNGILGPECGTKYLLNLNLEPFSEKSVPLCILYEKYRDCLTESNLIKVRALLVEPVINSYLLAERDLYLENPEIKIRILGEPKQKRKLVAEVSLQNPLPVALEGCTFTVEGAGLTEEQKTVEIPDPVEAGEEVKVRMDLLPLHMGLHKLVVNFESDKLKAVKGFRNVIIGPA
UniProt P21333: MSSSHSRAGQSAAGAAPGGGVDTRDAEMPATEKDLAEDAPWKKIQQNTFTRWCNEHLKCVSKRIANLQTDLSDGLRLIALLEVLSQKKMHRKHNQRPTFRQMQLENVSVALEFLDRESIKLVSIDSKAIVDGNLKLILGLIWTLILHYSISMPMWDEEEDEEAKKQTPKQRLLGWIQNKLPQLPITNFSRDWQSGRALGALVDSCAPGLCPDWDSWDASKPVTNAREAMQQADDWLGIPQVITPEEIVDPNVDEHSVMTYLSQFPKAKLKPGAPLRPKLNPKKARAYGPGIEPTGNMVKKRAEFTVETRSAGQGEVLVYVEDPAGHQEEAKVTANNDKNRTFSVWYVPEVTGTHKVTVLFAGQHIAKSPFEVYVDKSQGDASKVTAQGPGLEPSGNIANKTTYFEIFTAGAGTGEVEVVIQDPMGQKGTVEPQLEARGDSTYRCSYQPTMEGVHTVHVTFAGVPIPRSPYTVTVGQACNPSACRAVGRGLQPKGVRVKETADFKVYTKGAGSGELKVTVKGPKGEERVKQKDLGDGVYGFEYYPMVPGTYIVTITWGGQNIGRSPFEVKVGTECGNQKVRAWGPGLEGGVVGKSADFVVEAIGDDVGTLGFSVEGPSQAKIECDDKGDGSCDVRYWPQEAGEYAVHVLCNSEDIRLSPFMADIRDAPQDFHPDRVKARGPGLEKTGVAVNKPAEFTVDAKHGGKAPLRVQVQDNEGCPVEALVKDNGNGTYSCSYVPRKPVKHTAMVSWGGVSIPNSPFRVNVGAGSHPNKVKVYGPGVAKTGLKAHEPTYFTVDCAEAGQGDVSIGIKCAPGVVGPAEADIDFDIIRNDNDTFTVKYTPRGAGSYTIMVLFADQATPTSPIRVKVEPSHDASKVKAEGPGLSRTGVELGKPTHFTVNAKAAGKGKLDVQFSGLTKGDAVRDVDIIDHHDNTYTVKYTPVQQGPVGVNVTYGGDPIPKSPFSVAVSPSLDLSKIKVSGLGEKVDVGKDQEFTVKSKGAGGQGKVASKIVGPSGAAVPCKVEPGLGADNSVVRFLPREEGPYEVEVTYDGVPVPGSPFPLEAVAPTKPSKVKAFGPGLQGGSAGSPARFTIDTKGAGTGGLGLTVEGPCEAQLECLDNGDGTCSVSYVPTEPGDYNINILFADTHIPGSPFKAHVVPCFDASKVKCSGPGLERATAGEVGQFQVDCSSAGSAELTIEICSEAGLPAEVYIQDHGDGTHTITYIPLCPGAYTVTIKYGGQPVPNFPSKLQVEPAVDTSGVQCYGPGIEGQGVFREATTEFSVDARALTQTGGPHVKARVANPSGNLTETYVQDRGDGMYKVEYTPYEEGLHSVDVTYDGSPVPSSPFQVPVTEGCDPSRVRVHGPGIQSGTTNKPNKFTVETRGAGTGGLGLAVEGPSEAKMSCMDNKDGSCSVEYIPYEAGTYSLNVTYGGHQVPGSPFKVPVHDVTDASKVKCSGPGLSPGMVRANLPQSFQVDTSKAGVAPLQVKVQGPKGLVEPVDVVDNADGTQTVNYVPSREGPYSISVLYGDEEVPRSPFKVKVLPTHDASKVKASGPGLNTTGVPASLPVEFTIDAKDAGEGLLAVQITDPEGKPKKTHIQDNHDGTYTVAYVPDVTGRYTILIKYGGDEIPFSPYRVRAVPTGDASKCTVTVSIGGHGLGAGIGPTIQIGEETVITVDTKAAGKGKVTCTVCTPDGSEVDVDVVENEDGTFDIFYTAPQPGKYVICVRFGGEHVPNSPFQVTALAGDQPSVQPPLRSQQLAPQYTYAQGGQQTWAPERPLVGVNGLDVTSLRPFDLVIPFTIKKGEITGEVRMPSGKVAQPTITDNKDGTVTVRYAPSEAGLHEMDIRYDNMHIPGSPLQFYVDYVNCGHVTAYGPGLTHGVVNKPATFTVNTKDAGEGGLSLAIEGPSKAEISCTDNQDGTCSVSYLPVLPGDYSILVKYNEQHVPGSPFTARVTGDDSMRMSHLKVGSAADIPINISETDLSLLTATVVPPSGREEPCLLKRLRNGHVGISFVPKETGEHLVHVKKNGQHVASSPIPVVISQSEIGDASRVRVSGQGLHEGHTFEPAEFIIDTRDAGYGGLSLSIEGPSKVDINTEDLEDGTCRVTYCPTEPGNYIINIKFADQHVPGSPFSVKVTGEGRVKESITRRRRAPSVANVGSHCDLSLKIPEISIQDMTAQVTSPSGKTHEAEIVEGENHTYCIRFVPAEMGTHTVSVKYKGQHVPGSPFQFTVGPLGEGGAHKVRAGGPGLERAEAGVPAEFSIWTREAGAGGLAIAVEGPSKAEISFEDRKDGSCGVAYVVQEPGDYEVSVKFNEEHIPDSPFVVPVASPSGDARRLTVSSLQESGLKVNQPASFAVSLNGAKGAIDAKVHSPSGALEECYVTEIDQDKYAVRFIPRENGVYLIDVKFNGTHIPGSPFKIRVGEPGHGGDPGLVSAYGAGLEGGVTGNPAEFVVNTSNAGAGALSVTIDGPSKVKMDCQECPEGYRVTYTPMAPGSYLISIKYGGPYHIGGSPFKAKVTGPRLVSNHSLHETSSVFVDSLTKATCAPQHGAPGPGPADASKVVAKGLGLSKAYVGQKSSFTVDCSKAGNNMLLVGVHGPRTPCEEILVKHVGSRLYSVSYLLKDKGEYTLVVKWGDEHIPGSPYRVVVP
UniProt P11413: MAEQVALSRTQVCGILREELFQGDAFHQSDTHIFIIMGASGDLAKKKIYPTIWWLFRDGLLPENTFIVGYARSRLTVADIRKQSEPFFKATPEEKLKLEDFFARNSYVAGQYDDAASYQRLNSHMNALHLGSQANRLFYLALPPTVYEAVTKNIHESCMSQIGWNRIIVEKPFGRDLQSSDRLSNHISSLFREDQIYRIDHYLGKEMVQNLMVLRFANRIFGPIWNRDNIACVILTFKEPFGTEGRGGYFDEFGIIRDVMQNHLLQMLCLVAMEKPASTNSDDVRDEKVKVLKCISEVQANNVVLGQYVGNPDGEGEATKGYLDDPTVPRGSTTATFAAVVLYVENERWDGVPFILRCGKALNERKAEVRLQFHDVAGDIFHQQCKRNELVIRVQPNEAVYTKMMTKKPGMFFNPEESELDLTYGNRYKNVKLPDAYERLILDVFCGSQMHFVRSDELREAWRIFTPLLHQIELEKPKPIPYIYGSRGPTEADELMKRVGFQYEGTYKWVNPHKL
UniProt P61586: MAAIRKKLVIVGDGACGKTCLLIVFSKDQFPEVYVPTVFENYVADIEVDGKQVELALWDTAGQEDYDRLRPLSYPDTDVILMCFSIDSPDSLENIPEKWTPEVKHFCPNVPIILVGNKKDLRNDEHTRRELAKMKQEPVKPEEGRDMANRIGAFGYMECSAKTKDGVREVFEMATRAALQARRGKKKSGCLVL

The target of assay [1] is Transglutaminase 2 (human (endogenous in HMC)) (UniProt P21980). In words: affinity purification with mass spectrometry; IP of TGase2 from the cytosol fraction of HMC (with or without pIgA1 10 ug/mL, 48 h) with rabbit anti-TGase2 antibody cross-linked to protein A/G magnetic beads, overnight at 4°C; rabbit IgG as negative control; HPLC-MS/MS.
For assay [2] the target is unchanged. Described as above. This is another data set of the same source.

Like-named read-outs stand apart in the source and are kept apart here. These are yes or no findings as the source states them, for the method shown. Binding seen in cells or lysates may run through a third protein. Here binding means that the protein was enriched with, or labelled near, the bait; the list need not be complete.

Consider Filamin-A (from UniProt P21333 1-2647), for which the binding result in assay [1] was “binds”.

Turning to “Glucose-6-phosphate 1-dehydrogenase (from UniProt P11413 1-515) (enzyme)”, in assay [1], the binding result was “binds”.

As to “Ras homolog family member A (from UniProt P61586 1-193)”, the binding result in assay [1] is on record as “binds”.

B1: Annexin A1 (protein, UniProt P04083 1-346)
chain: MAMVSEFLKQAWFIENEEQEYVQTVKSSKGGPGSAVSPYPTFNPSSDVAALHKAIMVKGVDEATIIDILTKRNNAQRQQIKAAYLQETGKPLDETLKKALTGHLEEVVLALLKTPAQFDADELRAAMKGLGTDEDTLIEILASRTNKEIRDINRVYREELKRDLAKDITSDTSGDFRNALLSLAKGDRSEDFGVNEDLADSDARALYEAGERRKGTDVNVFNTILTTRSYPQLRRVFQKYTKYSKHDMNKVLDLELKGDIEKCLTAIVKCATSKPAFFAEKLHQAMKGVGTRHKALIRIMVSRSEIDMNDIKAFYQKMYGISLCQAILDETKGDYEKILVALCGGN
As for B1, the binding result in assay [2] is reported as “binds”.
